Measurements: PMC4433220
The exact form of at least one protein or probe is not confirmed. For some assays here: A weaker result is weaker than the reference pair of the same experiment. For some assays here: At least one verdict rests on a figure or table, not on a statement of the authors.

Columns and labels:
[1] = molecular target: Dps (Escherichia coli) (UniProt P0ABT2); assay: DNase I footprinting; conditions: 10 mM Mg2+, footprinting: 50 mM Tris-HCl pH 8.0, 0.1 mM EDTA, 0.1 mM DTT, 10 mM MgCl2, 50 mM NaCl, 5 mg/ml BSA, 37°C 40 min, recombinant protein, probe letters rebuilt from the primers and the genome
[2] = molecular target: Dps (Escherichia coli) (UniProt P0ABT2); assay: EMSA; conditions: EMSA: 50 mM Tris-HCl pH 7.5, 0.1 mM EDTA, 50 mM NaCl, 37°C 30 min, recombinant protein, none in EMSA, probe letters rebuilt from the primers and the genome
[3] = molecular target: Dps (Escherichia coli) (UniProt P0ABT2); assay: AFM; conditions: recombinant protein

Sequence: TCCTCTAGATGTTATGTCCCAGTAATTAACGAGATTAAGTATAGCACCGGCTATGTGTTCCGCTATTCTGGCTGTTCCTATCACACTAATAGTGGTAACAAGCGTGAAAAACAAAACTAATAAAGATTCAATGAGTTAGATATATTGATAAGAACAATTCTTATTTATCTGCTCGCCAGGAATTTTCGGAATAAATATGCTTTTGCATAATTCGATATATAAAGACGGTGTAGAGGAAAAGTAGCGAGAAATTCTGCATGGTTATGCATAACCATGCAGAAATGTAAATTTAATTAATGTCTAATTCTTTTATTTTGCTCTCTTTGCGTACTGTCAGCGTAGACCCCATTGAAGCGGCGATGATAGCGCCGAGCGCCAGTAGCTGTATGGGTGTCAGTGTTTCTCCGAGGAAGATCTTCC (double strand) [dps F1-R2 fragment]
- binding result ([1]; 5-fold Dps excess, label: 32P 5' end of dps_R2): binds

Sequence: GGAAGATCTTCCTCGGAGAAACACTGACACCCATACAGCTACTGGCGCTCGGCGCTATCATCGCCGCTTCAATGGGGTCTACGCTGACAGTACGCAAAGAGAGCAAAATAAAAGAATTAGACATTAATTAAATTTACATTTCTGCATGGTTATGCATAACCATGCAGAATTTCTCGCTACTTTTCCTCTACACCGTCTTTATATATCTAGATAT (double strand) [dps F1-R1 fragment (distal P3)]
- binding result ([2]; lower affinity than F2-R2 in mixed assay, label: 32P 5' end of dps_F1 in footprinting): binds more weakly
- binding result ([3]; bound at DNA ends, label: 32P 5' end of dps_F1 in footprinting, none in EMSA, probe letters rebuilt from the primers and the genome): binds
- binding result ([1]; R1 end protected at 10-fold Dps excess, label: 32P 5' end of dps_F1 in footprinting, none in EMSA): binds

Sequence: GCATAACCATGCAGAATTTCTCGCTACTTTTCCTCTACACCGTCTTTATATATCGAATTAAGAAGTCGCAATGAGTATTACTTTGTAAAT / CAAGGGTAAACGAACCTTGCGCTTTCTTAAATATTCGATATATAAAGACGGTGTAGAGGAAAAGTAGCGAGAAATTCTGCATGGTTATGC / ATTTACAAAGTAATACTCATTGCGACTTCTTAATTTAAGAAAGCGCAAGGTTCGTTTACCCTTG [Y9_Y10_Y7]
- binding result ([3]; one or two DNA branches visible, folded or branched DNA): binds

Sequence: TCCTCTAGATGTTATGTCCCAGTAATTAACGAGATTAAGTATAGCACCGGCTATGTGTTCCGCTATTCTGGCTGTTCCTATCACACTAATAGTGGTAACAAGCGTGAAAAACAAAACTAATAAAGATTCAATGAGTTAGATATATTGATAAGAACAATTCTTATTTATCTGCTCGCCAGGAATTTTCGGAATAAATATGCTTTTGCATAATTCGATATATAAAGACGGTGTAGAGGAAAAGTAGCGAGAAGATCTGCAT (double strand) [dps F2-R2 fragment (Pdps)]
- binding result ([2]; higher affinity than F1-R1 in mixed assay, label: 32P 5' end of dps_R2 in footprinting): binds
- binding result ([3]; bound at DNA ends, label: 32P 5' end of dps_R2 in footprinting, none in EMSA, probe letters rebuilt from the primers and the genome): binds
- binding result ([1]; 5- and 10-fold Dps excess, label: 32P 5' end of dps_R2 in footprinting, none in EMSA): binds
